Results from PubChem BioAssay AID1347423 (Functional Genomics Laboratory (NCATS/FGL), 2020).
The campaign covered roughly 52,000 sequences. About 210 (0.4%) were called active.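 How the source made its calls: active means gene whose silencing raises cell survival under the drug, median off-target-corrected z-score across its silencing RNAs 2 or more; inactive means the rest.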 This is one part of the list.

Test: Resistance to Poly (ADP-Ribose) Polymerase inhibitor: Gene Identification via Genome-wide siRNA Screen
Conditions: mouse BRCA2 R2336H ES cells, olaparib, CellTiter-Glo viability; active compounds read high
Outline: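 Genome-wide siRNA screen (3 siRNAs/gene, 20 nM) in mouse ES cells carrying hypomorphic BRCA2 R2336H; olaparib 500 nM added 48 h post-transfection, CellTiter-Glo viability 72 h later. Normalized to plate-median negative control; MAD z-scores, gene median, seed-adjusted.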

Sequence	z-score
GGUAUCAGGAUAAUAUAGATT against E230025K15	inactive: 0.0821
CGUGUGUGUUAUGAAUCAATT against BC021367	inactive: 0.0306
GCCCUACUGUAUUGUUAGCTT against Lamb1-1	inactive: 0.285
GGAAUCAAUGUGCUUCUAATT against Cyp39a1	inactive: 0.386
GCUAGUAAACAGAAUCCUCTT against Tubgcp2	inactive: 1.73
GGAGGUAGGAGCCAUAAGATT against Pter	inactive: -0.546
GGAGUUCUUCUAGCCAUGUTT against Olfr633	inactive: -1
GGAACUGAUUCUUAGCUACTT against 9430028I06Rik	inactive: -0.0424
GGUGAGGAGGCAAAGAUUCTT against Fkbpl	inactive: -0.64
GUACCCAAAAUGUUGAUGATT against Olfr979	inactive: 1.39
CCUUACUCAUCUCAACUUATT against Plekhe1	inactive: -0.211
CCAGACAGAUGGAUACCAATT against 5830472M02Rik	inactive: -0.355
GGAUCUUGGUUACCCUAGUTT against Casp9	inactive: -1.98
GGUAGAAAAUGUUUACCCUTT against C330018K18Rik	inactive: -0.2
GCCCAAUCUACACAGACCATT against Slc7a13	inactive: 0.273
GGAUAUCGUUUUCCUUGUATT against Retn	inactive: -0.699
GCCAUUUGAAGGCUUUUGUTT against D130079A08Rik	inactive: -0.234
GGAGAAAAUUGAACUGAAATT against Cacna1c	inactive: -0.874
GGAGAUUUUCCAGAGGCUGTT against 1300006C06Rik	inactive: -0.606
GCUAGUUUCCGUCGCUUUGTT against Cpeb4	inactive: 0.221
GGAGAAAGUGUAGUGUUUATT against Siglec5	inactive: 0.179
GCACACAAAACAUCUAACCTT against A430091O22Rik	inactive: 0.0809

2 consecutive entries from above, quoted:
Sequence	z-score
CCAGACAGAUGGAUACCAATT against 5830472M02Rik	inactive: -0.355
GGAUCUUGGUUACCCUAGUTT against Casp9	inactive: -1.98

Next records follow.

Sequence	z-score
GCCGGCAUCAGCUGAUUUCTT against Igbp1	inactive: -0.311
GGAUCAGUCAUUUCUCUGCTT against Aox3	inactive: 0.745
CGGUAGAGUGCUUACGCAATT against Camk2g	inactive: 0.494
GGCCUGGAGCUUUUAUAUUTT against LOC382686	inactive: 0.341
GGACAGUUCGUGUUUGGUUTT against Wdfy2	inactive: -1.48
GGAGGAAGAGGAGUAAAGGTT against Hoxa7	inactive: -0.0638
GGUAACUGUUACACAAAUCTT against 2810446P07Rik	inactive: 0.131
CCUAAACAGGUUGAUAGGCTT against Tuba1	inactive: 0.469
GCUUACUUCCAAGGUCUACTT against Ptch2	inactive: -0.637
GCGGAGGUUUCCUCCUUAATT against Fem1c	inactive: -1.56
GGCAAGGAAUCAAUGUCUCTT against Fscn2	inactive: 0.337
GGGUUUCUGACCCUUGGUUTT against V1rh12	inactive: -0.0653
CGGAACCUUAUUUAAAACUTT against Sirt5	inactive: 0.393
GGGAAAGAAAGUGAUUGUCTT against Hsd11b1	inactive: 2.23
GGCUAGCAAAUCCUACUGGTT against Mpl	inactive: -1.27
GGUGUUCCCGGUUGAAUAATT against Sepw1	inactive: -2.83
GGAAGAAAAACAACCAAGUTT against Elovl4	inactive: -0.665
GGAAAUAUUUUCUCAGCAATT against Pcdhga1	inactive: 1.47
CCGUGAUGGUAACAAAUCATT against Phyhipl	inactive: 0.093
GGAGGAGAACCCAUGUAACTT against Tcl1b1	inactive: -0.0286
GCCUGAUUAUUUGUAAUUGTT against 4632404H12Rik	inactive: -0.694
GGAAUUCUUCCCAUCUGUATT against AI451006	inactive: -0.363

Sequence	z-score
CCGUGUGACAUUUGAGUAUTT against Crhbp	inactive: -0.419
GCUUCCAUAGGUUUAACUUTT against 4921525D22Rik	inactive: 0.741
GGCCAUCAGAAGCAAGAUUTT against Akr1c21	inactive: 0.0777
GGAAUCGGAACCAGUUCCCTT against Smyd5	inactive: -0.308
AAUGCUAAUUACCAUGACATT against Lphn3	inactive: 0.151
GCGGCAUGGACUUAGUAAATT against Fbxo5	inactive: -1.8
GGAUCUAUGGACGACCUUCTT against Kcnj10	inactive: -0.661
GCUAGUUAAGAAGCAACAATT against Rpl12	inactive: -3.33
GGACUUGACCCUGUCUUUGTT against Ostm1	inactive: -1.2
CCGCUCAGUUCAUCUCAAATT against Snx15	inactive: 1.05
GGAAAUGUAUCGCUUGAAUTT against Dna2l	inactive: -0.496
GGACAUGGAUCAAAGUUCATT against Zfp40	inactive: 0.376
GAAAAAAUCUAUCUACCCUTT against Hoxb4	inactive: -0.234
GCCUAUGGGAUUCGAAUUGTT against P2rx2	inactive: 0.288
CCAAGCUUGACCCUACACUTT against Olfr1121	inactive: -0.249
GCCACCAGUGAAUAAUACATT against 4932701A20Rik	inactive: -1.94
GACACAGCAUCUUCAUGGATT against V1ra6	inactive: 1.68
GGGACAAGCCAGAAACAACTT against Col19a1	inactive: 0.225
GGGUAAUCAGAUUGAAAGATT against Dnahc5	inactive: 0.251
GGCUGAACUGGGAAAGCAATT against Krtap16-4	inactive: -1.89
GGGUUGUGCAAAUUGGGCUTT against Olfr570	inactive: -0.616
GCGGUACCUUCACUUGCAUTT against Lrfn1	inactive: -2.33
